Source: PMC7063196
No constants are given. Whether binding was seen depends on the method and setting. Some binding calls cover weakened binding; strength is not graded here.

Chains of the proteins cited; added tags and fusions are not shown. Residues count along the entry.
UniProt O35235, residues 139-316: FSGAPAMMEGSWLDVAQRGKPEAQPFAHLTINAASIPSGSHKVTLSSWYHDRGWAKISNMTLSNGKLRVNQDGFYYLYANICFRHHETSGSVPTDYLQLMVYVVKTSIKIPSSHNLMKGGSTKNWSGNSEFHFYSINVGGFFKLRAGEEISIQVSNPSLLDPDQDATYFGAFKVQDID

Biological target: T1, receptor activator of nuclear factor kappa-Β (RANK), endogenous in RAW264.7 cells (mouse (endogenous in RAW264.7)) (UniProt O35305)
T1 sequence: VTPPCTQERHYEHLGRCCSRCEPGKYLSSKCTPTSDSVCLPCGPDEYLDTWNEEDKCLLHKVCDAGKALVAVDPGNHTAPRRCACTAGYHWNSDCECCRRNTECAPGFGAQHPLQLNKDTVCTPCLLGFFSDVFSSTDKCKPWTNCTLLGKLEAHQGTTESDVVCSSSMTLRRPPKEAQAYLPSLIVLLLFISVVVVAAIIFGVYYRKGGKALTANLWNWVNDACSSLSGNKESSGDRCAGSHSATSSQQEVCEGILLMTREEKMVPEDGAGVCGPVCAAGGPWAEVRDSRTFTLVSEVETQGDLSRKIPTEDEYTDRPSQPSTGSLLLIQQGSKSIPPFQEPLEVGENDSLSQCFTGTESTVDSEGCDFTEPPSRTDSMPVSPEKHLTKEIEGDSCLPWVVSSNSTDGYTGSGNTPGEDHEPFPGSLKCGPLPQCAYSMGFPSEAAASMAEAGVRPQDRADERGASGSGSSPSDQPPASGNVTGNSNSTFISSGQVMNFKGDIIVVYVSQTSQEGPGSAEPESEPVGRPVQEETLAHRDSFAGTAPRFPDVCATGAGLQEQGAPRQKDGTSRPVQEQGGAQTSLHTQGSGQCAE
Assay: immunoblot of cell-associated ligand; RAW264.7 cells cultured with 50 ng/mL RANKL with or without FHb (10 μmol/L heme group) for 5 days; cell-bound RANKL in whole-cell lysates detected by anti-RANKL immunoblot, normalized to GAPDH; only the binder purified

**Q.** For “receptor activator of nuclear factor kappa-Β ligand (RANKL), purchased from Miltenyi Biotec (from UniProt O35235 139-316)”, which binding is on record?
**A.** binds
